# The supplement of paper PMC10849652
# By UniProt entry, the sequences of proteins in these tests, tags left out. Where a name states a change or a piece, a line headed by the entry shows the natural chain unless it says otherwise.
# UniProt Q13153, whole entry, looked up: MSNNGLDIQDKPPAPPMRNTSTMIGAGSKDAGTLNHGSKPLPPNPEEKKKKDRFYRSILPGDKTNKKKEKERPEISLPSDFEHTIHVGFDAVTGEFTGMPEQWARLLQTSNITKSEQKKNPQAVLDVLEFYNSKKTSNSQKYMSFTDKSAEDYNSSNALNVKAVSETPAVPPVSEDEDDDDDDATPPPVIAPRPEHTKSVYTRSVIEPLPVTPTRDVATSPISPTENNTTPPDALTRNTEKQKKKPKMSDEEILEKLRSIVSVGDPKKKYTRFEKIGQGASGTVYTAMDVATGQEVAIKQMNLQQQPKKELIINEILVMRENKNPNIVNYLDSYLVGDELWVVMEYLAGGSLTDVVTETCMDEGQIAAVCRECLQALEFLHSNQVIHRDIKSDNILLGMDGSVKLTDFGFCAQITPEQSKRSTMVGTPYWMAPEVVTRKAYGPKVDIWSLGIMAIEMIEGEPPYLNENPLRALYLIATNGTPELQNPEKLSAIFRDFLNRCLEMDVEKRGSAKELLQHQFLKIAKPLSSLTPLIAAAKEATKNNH
# UniProt Q9Y6K5: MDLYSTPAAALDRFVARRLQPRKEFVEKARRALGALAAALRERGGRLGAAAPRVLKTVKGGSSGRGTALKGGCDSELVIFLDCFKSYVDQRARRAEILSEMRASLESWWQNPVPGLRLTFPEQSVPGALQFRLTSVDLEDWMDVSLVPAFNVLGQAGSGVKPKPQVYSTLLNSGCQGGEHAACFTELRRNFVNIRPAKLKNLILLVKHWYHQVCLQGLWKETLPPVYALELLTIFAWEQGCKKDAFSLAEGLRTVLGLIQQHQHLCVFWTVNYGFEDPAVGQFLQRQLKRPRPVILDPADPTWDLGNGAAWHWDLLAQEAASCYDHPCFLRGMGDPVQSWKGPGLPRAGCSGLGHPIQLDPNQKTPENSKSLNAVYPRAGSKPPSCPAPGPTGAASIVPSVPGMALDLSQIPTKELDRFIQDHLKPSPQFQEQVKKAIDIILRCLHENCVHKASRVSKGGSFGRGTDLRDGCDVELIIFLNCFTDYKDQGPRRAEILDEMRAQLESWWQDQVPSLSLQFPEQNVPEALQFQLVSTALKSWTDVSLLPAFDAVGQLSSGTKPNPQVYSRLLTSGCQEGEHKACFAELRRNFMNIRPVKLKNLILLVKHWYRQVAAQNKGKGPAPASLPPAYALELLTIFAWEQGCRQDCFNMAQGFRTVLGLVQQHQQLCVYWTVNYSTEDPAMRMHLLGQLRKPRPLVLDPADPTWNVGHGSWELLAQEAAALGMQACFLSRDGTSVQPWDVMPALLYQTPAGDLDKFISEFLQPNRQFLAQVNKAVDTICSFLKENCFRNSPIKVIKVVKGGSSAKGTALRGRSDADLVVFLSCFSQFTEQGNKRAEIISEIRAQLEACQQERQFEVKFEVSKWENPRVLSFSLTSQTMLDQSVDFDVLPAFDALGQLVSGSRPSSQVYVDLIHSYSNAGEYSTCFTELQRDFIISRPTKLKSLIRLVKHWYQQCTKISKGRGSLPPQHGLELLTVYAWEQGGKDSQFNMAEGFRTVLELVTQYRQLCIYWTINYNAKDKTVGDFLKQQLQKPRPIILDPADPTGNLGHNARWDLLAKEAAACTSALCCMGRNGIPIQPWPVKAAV
# UniProt Q96CV9, whole entry, looked up: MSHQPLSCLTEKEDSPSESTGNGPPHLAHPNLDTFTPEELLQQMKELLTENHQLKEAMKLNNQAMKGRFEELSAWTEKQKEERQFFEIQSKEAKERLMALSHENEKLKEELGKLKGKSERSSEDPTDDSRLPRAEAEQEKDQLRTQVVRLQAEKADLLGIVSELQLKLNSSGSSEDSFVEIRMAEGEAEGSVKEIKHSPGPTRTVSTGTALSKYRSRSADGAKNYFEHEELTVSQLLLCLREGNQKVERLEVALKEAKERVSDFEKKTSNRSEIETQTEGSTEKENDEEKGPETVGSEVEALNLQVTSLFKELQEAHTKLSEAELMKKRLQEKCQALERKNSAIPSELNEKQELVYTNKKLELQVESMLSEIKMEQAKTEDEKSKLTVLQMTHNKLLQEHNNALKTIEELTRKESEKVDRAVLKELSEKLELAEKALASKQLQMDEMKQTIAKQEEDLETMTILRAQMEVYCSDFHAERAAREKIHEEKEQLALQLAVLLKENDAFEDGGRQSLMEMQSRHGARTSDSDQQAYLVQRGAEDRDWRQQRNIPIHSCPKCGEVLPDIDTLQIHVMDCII
# UniProt Q9P0S3: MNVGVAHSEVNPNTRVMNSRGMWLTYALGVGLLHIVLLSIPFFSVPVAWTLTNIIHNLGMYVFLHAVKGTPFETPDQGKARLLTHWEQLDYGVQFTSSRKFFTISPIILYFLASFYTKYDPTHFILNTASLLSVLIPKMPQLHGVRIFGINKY
# UniProt Q5BKU9: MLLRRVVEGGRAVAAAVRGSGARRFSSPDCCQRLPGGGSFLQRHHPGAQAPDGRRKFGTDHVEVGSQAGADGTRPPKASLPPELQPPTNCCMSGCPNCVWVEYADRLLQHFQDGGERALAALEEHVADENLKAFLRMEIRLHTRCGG
# UniProt Q13416: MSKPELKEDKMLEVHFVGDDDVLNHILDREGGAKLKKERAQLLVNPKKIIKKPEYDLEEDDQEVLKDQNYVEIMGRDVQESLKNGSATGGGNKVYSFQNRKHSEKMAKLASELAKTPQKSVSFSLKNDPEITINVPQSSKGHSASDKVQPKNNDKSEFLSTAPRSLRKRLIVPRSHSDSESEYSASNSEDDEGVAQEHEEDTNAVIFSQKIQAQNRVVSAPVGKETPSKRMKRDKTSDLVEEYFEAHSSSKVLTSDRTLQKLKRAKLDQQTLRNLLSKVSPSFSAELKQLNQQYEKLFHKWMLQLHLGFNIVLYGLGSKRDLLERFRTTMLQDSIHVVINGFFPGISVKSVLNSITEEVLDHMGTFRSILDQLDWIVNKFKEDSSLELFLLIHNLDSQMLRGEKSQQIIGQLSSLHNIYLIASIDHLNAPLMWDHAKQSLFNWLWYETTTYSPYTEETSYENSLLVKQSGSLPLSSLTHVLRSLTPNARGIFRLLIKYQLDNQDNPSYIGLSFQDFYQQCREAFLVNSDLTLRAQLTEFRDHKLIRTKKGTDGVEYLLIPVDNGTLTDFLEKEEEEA
# UniProt Q9BY11: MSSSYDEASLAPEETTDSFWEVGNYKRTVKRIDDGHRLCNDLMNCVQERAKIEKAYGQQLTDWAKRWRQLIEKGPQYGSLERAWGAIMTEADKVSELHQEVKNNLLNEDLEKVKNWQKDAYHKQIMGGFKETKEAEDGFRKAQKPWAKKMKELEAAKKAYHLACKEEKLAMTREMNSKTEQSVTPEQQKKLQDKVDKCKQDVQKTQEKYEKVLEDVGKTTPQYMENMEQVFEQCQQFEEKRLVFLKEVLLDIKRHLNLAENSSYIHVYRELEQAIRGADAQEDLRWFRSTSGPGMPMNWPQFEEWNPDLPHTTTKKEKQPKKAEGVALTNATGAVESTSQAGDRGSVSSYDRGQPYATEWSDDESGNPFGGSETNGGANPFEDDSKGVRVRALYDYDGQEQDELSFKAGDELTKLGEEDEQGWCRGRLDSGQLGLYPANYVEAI
# UniProt Q9H1P3, whole entry, looked up: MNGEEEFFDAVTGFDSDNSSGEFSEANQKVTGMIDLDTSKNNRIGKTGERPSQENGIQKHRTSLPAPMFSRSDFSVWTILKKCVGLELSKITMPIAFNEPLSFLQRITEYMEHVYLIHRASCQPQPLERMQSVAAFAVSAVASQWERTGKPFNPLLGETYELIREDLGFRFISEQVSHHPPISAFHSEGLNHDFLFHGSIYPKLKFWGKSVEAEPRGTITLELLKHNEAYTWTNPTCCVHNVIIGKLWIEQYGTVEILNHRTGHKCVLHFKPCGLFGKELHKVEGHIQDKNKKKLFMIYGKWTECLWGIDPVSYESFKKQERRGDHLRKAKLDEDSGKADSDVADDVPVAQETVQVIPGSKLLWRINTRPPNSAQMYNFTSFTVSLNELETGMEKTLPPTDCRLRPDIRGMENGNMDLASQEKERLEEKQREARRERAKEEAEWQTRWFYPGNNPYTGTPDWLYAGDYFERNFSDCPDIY
# UniProt O43482, whole entry, looked up: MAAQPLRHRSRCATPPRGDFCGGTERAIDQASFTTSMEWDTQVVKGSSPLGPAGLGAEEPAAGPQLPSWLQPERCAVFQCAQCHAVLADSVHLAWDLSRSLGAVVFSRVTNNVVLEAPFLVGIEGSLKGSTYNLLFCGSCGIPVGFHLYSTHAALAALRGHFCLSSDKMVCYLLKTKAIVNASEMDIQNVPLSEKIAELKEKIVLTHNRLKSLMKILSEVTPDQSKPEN
# UniProt Q8N6M0: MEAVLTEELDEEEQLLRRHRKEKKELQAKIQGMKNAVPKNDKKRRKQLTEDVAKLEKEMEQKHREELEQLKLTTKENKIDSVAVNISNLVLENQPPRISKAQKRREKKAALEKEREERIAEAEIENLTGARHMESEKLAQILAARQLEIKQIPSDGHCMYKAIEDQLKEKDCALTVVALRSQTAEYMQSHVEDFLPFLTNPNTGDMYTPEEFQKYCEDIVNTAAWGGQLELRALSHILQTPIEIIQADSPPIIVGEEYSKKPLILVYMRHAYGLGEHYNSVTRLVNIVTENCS
# UniProt Q9H999: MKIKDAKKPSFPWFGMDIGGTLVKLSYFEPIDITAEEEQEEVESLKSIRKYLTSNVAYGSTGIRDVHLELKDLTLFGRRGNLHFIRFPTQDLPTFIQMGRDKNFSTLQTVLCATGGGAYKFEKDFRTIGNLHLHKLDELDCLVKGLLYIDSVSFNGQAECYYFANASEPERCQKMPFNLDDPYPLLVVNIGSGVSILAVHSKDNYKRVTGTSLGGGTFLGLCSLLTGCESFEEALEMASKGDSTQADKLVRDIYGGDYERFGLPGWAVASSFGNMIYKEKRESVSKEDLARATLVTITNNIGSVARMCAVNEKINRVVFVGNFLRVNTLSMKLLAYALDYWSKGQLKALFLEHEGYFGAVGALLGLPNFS
# UniProt O43913: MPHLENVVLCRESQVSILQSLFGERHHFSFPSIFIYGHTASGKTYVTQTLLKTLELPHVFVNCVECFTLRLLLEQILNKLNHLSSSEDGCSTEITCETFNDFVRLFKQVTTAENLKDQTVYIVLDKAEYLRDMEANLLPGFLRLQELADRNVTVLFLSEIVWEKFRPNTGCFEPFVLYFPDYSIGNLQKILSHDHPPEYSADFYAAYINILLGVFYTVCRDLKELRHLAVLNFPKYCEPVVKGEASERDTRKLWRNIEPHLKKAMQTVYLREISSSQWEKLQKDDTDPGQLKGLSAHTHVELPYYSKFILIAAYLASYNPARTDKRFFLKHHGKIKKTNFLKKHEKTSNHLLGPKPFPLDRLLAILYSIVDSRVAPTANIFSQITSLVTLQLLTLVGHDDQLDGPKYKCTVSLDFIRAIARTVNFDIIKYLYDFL
# UniProt Q9Y5N6: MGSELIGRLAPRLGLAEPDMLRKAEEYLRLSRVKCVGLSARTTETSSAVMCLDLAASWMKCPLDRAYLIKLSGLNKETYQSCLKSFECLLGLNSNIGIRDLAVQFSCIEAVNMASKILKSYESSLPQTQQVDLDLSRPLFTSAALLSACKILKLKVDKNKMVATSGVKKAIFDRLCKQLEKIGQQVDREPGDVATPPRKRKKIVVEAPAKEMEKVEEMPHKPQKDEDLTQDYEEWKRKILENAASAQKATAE
# UniProt Q9UBD5: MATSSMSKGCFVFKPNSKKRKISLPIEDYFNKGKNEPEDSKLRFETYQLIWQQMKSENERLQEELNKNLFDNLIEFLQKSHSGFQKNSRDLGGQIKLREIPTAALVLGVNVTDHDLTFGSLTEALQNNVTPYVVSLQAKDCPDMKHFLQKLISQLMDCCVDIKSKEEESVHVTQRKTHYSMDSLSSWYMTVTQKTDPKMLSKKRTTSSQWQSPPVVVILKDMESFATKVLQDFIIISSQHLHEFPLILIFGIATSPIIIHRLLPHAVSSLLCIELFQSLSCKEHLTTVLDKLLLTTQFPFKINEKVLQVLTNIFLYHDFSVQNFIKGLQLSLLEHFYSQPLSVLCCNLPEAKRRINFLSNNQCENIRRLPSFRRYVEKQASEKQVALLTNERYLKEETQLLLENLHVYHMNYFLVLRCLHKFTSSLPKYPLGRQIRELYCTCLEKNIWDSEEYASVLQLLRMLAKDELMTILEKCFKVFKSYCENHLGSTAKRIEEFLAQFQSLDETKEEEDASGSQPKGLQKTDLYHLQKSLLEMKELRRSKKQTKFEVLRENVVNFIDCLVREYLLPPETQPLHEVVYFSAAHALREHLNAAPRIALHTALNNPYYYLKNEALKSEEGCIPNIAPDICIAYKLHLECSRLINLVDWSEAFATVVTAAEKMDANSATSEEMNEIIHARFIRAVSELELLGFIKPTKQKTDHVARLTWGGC
# Some of the results follow.
# Assays:
# Experiment in all cases: log2 fold change, soluble protein after heating vs DMSO (PISA); higher = thermal stabilisation; K562 lysate, 10 uM; active = over 0.2 and 3.5 SD of the protein, either way, in both replicates (recomputed)
# nilotinib = compound: Cc1cn(-c2cc(NC(=O)c3ccc(C)c(Nc4nccc(-c5cccnc5)n4)c3)cc(C(F)(F)F)c2)cn1 [nilotinib]
# How it was run: (§1)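 Quantification was by TMTpro 16plex LC-MS/MS with equalised channel sums, applied to the supernatant after 21,000xg for 90 min. Samples were crude K562 extract at 1 mg/mL protein in PBS pH 7.4 with 1 mM MgCl2, treated with 10 μM compound for 30 min, heated for 3 min across 48°C-58°C, pooled and brought to 0.5% NP-40 at 4°C. Values are log-two fold changes in thermal stability relative to solvent controls, from duplicates.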
# [1] = compound: Cc1nc(Nc2n[nH]c3c2CN(C(=O)N[C@H](CN(C)C)c2ccccc2)C3(C)C)c2sccc2n1
# How it was run: as §1
# dasatinib = compound: Cc1nc(Nc2ncc(C(=O)Nc3c(C)cccc3Cl)s2)cc(N2CCN(CCO)CC2)n1 [dasatinib]
# How it was run: as §1
# [2] = compound: Cc1ncc(-c2ccnc(Nc3ccc(S(C)(=O)=O)cc3)n2)n1C(C)C
# How it was run: as §1
# [3] = compound: Cn1cc(-c2ccc3c(c2)CCN3C(=O)Cc2cccc(C(F)(F)F)c2)c2c(N)ncnc21
# How it was run: as §1
# quisinostat = compound: Cn1cc(CNCC2CCN(c3ncc(C(=O)NO)cn3)CC2)c2ccccc21 [quisinostat]
# How it was run: as §1
# tipifarnib = compound: Cn1cncc1[C@@](N)(c1ccc(Cl)cc1)c1ccc2c(c1)c(-c1cccc(Cl)c1)cc(=O)n2C [tipifarnib]
# How it was run: as §1
# [4] = compound: NC(=O)Nc1cc(-c2cccc(F)c2)sc1C(=O)N[C@H]1CCCNC1
# How it was run: as §1
# [5] = compound: NC(=O)c1cnc(N[C@@H]2CCCC[C@@H]2N)nc1Nc1cccc(-n2nccn2)c1
# How it was run: as §1
# [6] = compound: NC1(c2ccc(-c3nc4ccn5c(=O)[nH]nc5c4cc3-c3ccccc3)cc2)CCC1
# How it was run: as §1
# [7] = compound: NCC(=O)Nc1ccc(-n2nc(C(F)(F)F)cc2-c2ccc3c(ccc4ccccc43)c2)cc1
# How it was run: as §1
# vorinostat = compound: O=C(CCCCCCC(=O)Nc1ccccc1)NO [vorinostat]
# How it was run: as §1
# silmitasertib = compound: O=C(O)c1ccc2c(c1)nc(Nc1cccc(Cl)c1)c1ccncc12 [silmitasertib]
# How it was run: as §1
# [8] = compound: O=C1NC(=O)C(c2cnc3ccccn23)=C1c1cn2c3c(cc(F)cc13)CN(C(=O)N1CCCCC1)CC2
# How it was run: as §1
# entospletinib = compound: c1cn2cc(-c3ccc4cn[nH]c4c3)nc(Nc3ccc(N4CCOCC4)cc3)c2n1 [entospletinib]
# How it was run: as §1
Target,log2 fold change (nilotinib),log2 fold change [1],log2 fold change (dasatinib),log2 fold change [2],log2 fold change [3],log2 fold change (quisinostat),log2 fold change (tipifarnib),log2 fold change [4],log2 fold change [5],log2 fold change [6],log2 fold change [7],log2 fold change (vorinostat),log2 fold change (silmitasertib),log2 fold change [8],log2 fold change (entospletinib)
PAK1 (UniProt Q13153),inactive: 0.028,inactive: 0.02,inactive: 0.046,inactive: 0.012,inactive: -0.024,inactive: 0.044,inactive: -0.053,inactive: -0.028,inactive: -0.025,inactive: -0.012,inactive: 0.008,inactive: 0.13,inactive: -0.046,inactive: -0.001,inactive: 0.051
PABPC1 (UniProt H0YAR2),inactive: -0.034,inactive: 0.031,,inactive: 0.037,,inactive: 0.05,inactive: 0.002,inactive: 0.09,inactive: 0.064,inactive: -0.001,,inactive: 0.013,inactive: 0.072,inactive: 0.099,
OAS3 (UniProt Q9Y6K5),inactive: -0.206,inactive: -0.004,,inactive: 0,,inactive: 0.083,inactive: -0.097,inactive: 0.085,inactive: -0.109,inactive: 0.199,,inactive: -0.396,inactive: 0.087,inactive: -0.007,inactive: -0.007
OPTN (UniProt Q96CV9),inactive: 0.009,inactive: 0.069,inactive: -0.026,inactive: 0.042,inactive: 0.025,inactive: 0.001,inactive: 0.006,inactive: 0.003,inactive: 0.06,inactive: 0.029,inactive: -0.027,inactive: 0.069,inactive: 0.003,inactive: -0.017,inactive: 0
ORMDL1 (UniProt Q9P0S3),inactive: -0.047,inactive: -0.155,inactive: -0.144,inactive: 0.067,inactive: 0.054,inactive: -0.085,inactive: 0.04,inactive: 0.003,,inactive: 0.016,inactive: 0.162,inactive: 0.058,inactive: -0.003,inactive: -0.034,
OXLD1 (UniProt Q5BKU9),inactive: -0.013,inactive: -0.036,,inactive: 0.399,,inactive: -0.074,inactive: -0.104,inactive: -0.02,inactive: -0.026,,,,,inactive: 0.202,
OBSL1 (UniProt O75147),inactive: -0.026,inactive: -0.045,inactive: -0.01,inactive: -0.057,inactive: 0.02,inactive: -0.053,inactive: -0.04,inactive: 0.108,inactive: 0.048,inactive: -0.038,inactive: 0.021,inactive: -0.186,inactive: 0.022,inactive: -0.031,inactive: 0.008
ORC2 (UniProt Q13416),inactive: 0,inactive: 0.009,inactive: -0.036,inactive: -0.014,inactive: -0.004,inactive: -0.016,inactive: 0.004,inactive: 0.095,inactive: -0.004,inactive: -0.029,inactive: 0,active: -0.285,inactive: 0.007,inactive: 0.049,inactive: 0.021
PACSIN1 (UniProt Q9BY11),inactive: -0.128,inactive: -0.027,inactive: -0.06,inactive: -0.034,inactive: -0.122,,inactive: -0.194,,inactive: 0.052,inactive: -0.066,inactive: -0.062,inactive: 0.133,inactive: 0.041,,inactive: 0.001
ORAI1 (UniProt Q96D31),inactive: 0.059,inactive: 0.034,,inactive: -0.042,,inactive: 0.027,inactive: 0.012,inactive: -0.002,inactive: -0.091,inactive: -0.016,,inactive: 0.021,inactive: -0.028,inactive: 0.018,inactive: -0.034
PA2G4 (UniProt Q9UQ80),inactive: 0.015,inactive: -0.008,inactive: 0.003,inactive: 0.006,inactive: 0.009,inactive: 0.028,inactive: 0.002,inactive: 0.009,inactive: -0.006,inactive: 0,inactive: 0.004,inactive: 0.002,inactive: -0.004,inactive: -0.006,inactive: 0.006
OSBPL1A (UniProt Q9BXW6),inactive: -0.07,inactive: -0.02,inactive: -0.044,inactive: -0.051,inactive: -0.027,inactive: -0.147,inactive: 0.015,inactive: 0,inactive: -0.024,active: -0.388,,inactive: 0.128,inactive: -0.19,inactive: -0.14,
P4HA1 (UniProt P13674),inactive: 0.018,inactive: -0.016,inactive: -0.012,inactive: 0.009,inactive: 0.005,inactive: 0.012,inactive: -0.039,inactive: -0.007,inactive: 0.005,inactive: -0.014,inactive: 0.002,inactive: 0.032,inactive: -0.034,inactive: 0.013,inactive: -0.017
OSBPL2 (UniProt Q9H1P3),inactive: -0.165,inactive: 0.018,inactive: -0.065,inactive: 0.042,inactive: -0.064,inactive: 0.028,inactive: 0.019,inactive: 0.039,inactive: -0.016,inactive: -0.034,inactive: -0.009,inactive: -0.189,inactive: 0.032,inactive: -0.025,inactive: -0.015
OIP5 (UniProt O43482),inactive: 0.08,inactive: 0.049,inactive: -0.008,inactive: 0.068,inactive: -0.051,inactive: -0.05,inactive: 0.019,inactive: -0.032,inactive: -0.038,inactive: -0.015,inactive: -0.003,inactive: 0.038,inactive: -0.055,inactive: 0.016,inactive: -0.032
PANK2 (UniProt Q9BZ23),inactive: -0.068,inactive: -0.111,inactive: 0.135,inactive: 0.001,inactive: -0.032,inactive: 0.045,inactive: 0.126,inactive: -0.053,inactive: -0.005,,inactive: 0,,,inactive: -0.012,inactive: -0.023
OTUD6B (UniProt Q8N6M0),inactive: -0.041,inactive: -0.039,inactive: 0.002,inactive: 0.004,inactive: 0.025,inactive: -0.001,inactive: 0.025,inactive: 0.031,inactive: -0.011,inactive: 0.179,inactive: 0.02,inactive: -0.037,inactive: -0.022,inactive: -0.023,inactive: 0.03
PANK3 (UniProt Q9H999),inactive: -0.124,inactive: -0.04,inactive: -0.159,inactive: -0.042,inactive: -0.053,,inactive: -0.125,,inactive: 0.184,inactive: -0.138,inactive: 0.039,inactive: -0.056,inactive: 0.124,,inactive: -0.036
ORC5 (UniProt O43913),inactive: -0.043,inactive: -0.004,inactive: -0.047,inactive: 0.019,inactive: 0.098,inactive: -0.107,inactive: -0.004,inactive: 0.098,inactive: 0.047,inactive: -0.073,inactive: 0.023,active: -0.377,inactive: 0.072,inactive: 0.011,inactive: 0.066
ORC6 (UniProt Q9Y5N6),inactive: 0.032,inactive: 0,inactive: 0.04,inactive: -0.014,inactive: -0.02,inactive: -0.032,inactive: 0.032,inactive: 0.024,,inactive: 0.056,inactive: -0.01,inactive: -0.241,inactive: -0.036,inactive: -0.011,inactive: 0.044
ORC3 (UniProt Q9UBD5),inactive: 0.038,inactive: -0.062,,inactive: 0.059,,,inactive: -0.084,,inactive: -0.053,,,,,,

# Single entries from the list.
# Under log2 fold change [4], PAK1 (UniProt Q13153) has the entry inactive: -0.028
# Under log2 fold change [1], OSBPL1A (UniProt Q9BXW6) has the entry inactive: -0.02
